Laboratory results reported in publication PMC4650726.

Molecular target: T1, Acid sphingomyelinase (human (endogenous in naive CD4+ T cells from blood)) (UniProt P17405)
T1 sequence: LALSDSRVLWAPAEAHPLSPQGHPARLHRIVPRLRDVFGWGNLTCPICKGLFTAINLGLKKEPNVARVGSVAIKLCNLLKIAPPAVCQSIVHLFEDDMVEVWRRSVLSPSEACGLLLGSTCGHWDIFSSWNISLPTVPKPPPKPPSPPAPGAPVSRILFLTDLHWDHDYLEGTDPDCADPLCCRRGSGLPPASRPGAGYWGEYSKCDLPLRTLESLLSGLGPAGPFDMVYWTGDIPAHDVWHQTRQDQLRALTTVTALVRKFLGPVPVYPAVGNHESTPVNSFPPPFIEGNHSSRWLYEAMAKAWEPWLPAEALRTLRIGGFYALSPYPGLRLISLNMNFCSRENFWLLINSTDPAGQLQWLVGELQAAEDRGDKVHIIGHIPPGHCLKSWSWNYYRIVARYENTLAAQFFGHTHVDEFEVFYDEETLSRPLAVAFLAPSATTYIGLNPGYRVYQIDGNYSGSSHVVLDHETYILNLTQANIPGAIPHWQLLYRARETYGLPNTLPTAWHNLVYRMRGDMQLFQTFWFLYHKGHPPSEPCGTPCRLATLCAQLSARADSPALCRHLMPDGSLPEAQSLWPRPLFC
Experiment: co-IP; naive CD4+ T-cell lysates in RIPA buffer (1 mM EDTA, 50 mM Tris-HCl pH 7.4, 150 mM NaCl, 1% NP-40, 0.25% sodium deoxycholate); mouse anti-human ASM antibody 3 h at 4 °C, Protein G-Sepharose 4B; blots for CD3 and CD28; mouse IgG or beads only as capture controls

binding: binds
Substance: CD3 (receptor)

These are yes or no findings as the source states them, for the method shown. Binding seen in cells or lysates may run through a third protein. A result given as binding can be weak or reduced; the word gives no strength.
